{"sequences": {"note": "By UniProt entry, the sequences of proteins in these tests, tags left out.", "UniProt P11802": "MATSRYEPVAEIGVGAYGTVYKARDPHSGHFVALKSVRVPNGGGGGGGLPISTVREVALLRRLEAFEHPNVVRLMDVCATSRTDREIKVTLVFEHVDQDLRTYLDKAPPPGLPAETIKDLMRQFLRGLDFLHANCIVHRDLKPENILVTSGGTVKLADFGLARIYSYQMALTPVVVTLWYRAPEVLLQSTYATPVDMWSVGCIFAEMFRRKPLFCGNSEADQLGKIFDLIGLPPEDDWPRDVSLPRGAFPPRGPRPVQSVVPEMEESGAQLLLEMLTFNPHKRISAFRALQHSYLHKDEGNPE", "UniProt P38936": "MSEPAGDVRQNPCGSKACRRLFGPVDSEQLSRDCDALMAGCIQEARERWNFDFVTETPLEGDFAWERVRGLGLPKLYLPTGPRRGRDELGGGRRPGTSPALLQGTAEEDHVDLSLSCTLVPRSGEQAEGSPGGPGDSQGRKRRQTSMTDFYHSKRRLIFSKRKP", "UniProt P46527": "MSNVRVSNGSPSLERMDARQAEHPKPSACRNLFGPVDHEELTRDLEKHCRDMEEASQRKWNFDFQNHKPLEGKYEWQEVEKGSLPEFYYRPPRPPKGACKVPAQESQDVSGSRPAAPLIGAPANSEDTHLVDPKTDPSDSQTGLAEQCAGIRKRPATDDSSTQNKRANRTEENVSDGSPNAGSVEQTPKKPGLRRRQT"}, "source": "paper PMC5484104", "key": {"[1]": {"target": "cyclin-dependent kinase CDK4 (human (endogenous in HCT116)) (UniProt P11802)", "test": "condition: only untreated control cells (without fucoidan); co-IP; untreated control p53+/+ and p53−/− HCT116 cells (no fucoidan); 500 μg total cell lysate immunoprecipitated with anti-CDK2 or anti-CDK4 antibodies, blot probed with anti-p21 or anti-p27"}, "[2]": {"target": "cyclin-dependent kinase CDK4 (human (endogenous in HCT116)) (UniProt P11802)", "test": "co-IP; p53+/+ and p53−/− HCT116 cells treated with 150 μg/mL fucoidan for 24 h; 500 μg total cell lysate immunoprecipitated with anti-CDK2 or anti-CDK4 antibodies (6 h, 4 °C, protein A-Sepharose), blot probed with anti-p21 or anti-p27"}}, "note": "Results are given in words; binding and its absence hold for the method and conditions named. Binding seen in cells or lysates may run through a third protein. Some results given as binding are weak or reduced against the parent protein; the word gives no strength.", "data": [{"substance": "p21WAF1/CIP1 (from UniProt P38936 1-164)", "values": [{"measurement": "binding", "setting": "[1]", "value": "no binding"}]}, {"substance": "p27KIP1 (from UniProt P46527 1-198)", "values": [{"measurement": "binding", "setting": "[1]", "value": "no binding"}, {"measurement": "binding", "setting": "[2]", "value": "binds"}]}]}
